Measurements reported in PubChem BioAssay AID1224830 (NIAID, 2016).
Screen: 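Host factors that control LPS-induced TNF expression in human macrophages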 (primary screen). Cells: human THP-1 monocytic leukaemia cells, TNF dual-luciferase reporter clone, PMA-differentiated to macrophage-like cells. Reagent: siRNA pool against human genes, 50 nM. Duration: LPS for 4 h, given about 3 days after siRNA transfection. Treatment: bacterial LPS (TLR4 ligand), 10 ng/ml. Measurement: 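Ratio of firefly to renilla light, scaled to the plate median and expressed as a robust z-score per replicate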. Reading the numbers: TNF reporter robust z-score: higher = stronger TNF reporter response to LPS. Active means: 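a well is active when its z-score exceeds 2.8 or falls below -1.5; control wells carry no call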.
The deposit covers about 18,000 reagents; shown is an unselected part. Of all reagents, about 2,900 (16%) are marked active. 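Calls are made per well; low scores hint the gene aids the LPS response, high scores that it dampens it.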 Repeated entries: four replicate wells of each siRNA pool.

ECH1 → TNF reporter robust z-score = 0.3; outcome = inactive
ECH1 → TNF reporter robust z-score = 0.46; outcome = inactive
ECH1 → TNF reporter robust z-score = 0.63; outcome = inactive
ECH1 → TNF reporter robust z-score = 0.35; outcome = inactive
TASL → TNF reporter robust z-score = 0.56; outcome = inactive
TASL → TNF reporter robust z-score = 0.16; outcome = inactive
TASL → TNF reporter robust z-score = -0.36; outcome = inactive
TASL → TNF reporter robust z-score = -0.32; outcome = inactive
OR5H15 → TNF reporter robust z-score = -0.42; outcome = inactive
OR5H15 → TNF reporter robust z-score = -0.51; outcome = inactive
OR5H15 → TNF reporter robust z-score = -1.21; outcome = inactive
OR5H15 → TNF reporter robust z-score = 0.16; outcome = inactive
ELOVL5 → TNF reporter robust z-score = 0.86; outcome = inactive
ELOVL5 → TNF reporter robust z-score = 1.26; outcome = inactive
ELOVL5 → TNF reporter robust z-score = 1.2; outcome = inactive
ELOVL5 → TNF reporter robust z-score = 0.24; outcome = inactive
ABCC10 → TNF reporter robust z-score = -0.95; outcome = inactive
ABCC10 → TNF reporter robust z-score = -1.19; outcome = inactive
ABCC10 → TNF reporter robust z-score = -1.38; outcome = inactive
ABCC10 → TNF reporter robust z-score = -1.12; outcome = inactive
LYLDT1 → TNF reporter robust z-score = -0.15; outcome = inactive
LYLDT1 → TNF reporter robust z-score = -0.9; outcome = inactive
LYLDT1 → TNF reporter robust z-score = 0.37; outcome = inactive
LYLDT1 → TNF reporter robust z-score = 0.03; outcome = inactive
TAS2R20 → TNF reporter robust z-score = 2.02; outcome = inactive
TAS2R20 → TNF reporter robust z-score = 2.81; outcome = active
TAS2R20 → TNF reporter robust z-score = 0.7; outcome = inactive
TAS2R20 → TNF reporter robust z-score = 3.84; outcome = active
KLF1 → TNF reporter robust z-score = -0.81; outcome = inactive
KLF1 → TNF reporter robust z-score = 0.79; outcome = inactive
KLF1 → TNF reporter robust z-score = -0.36; outcome = inactive
KLF1 → TNF reporter robust z-score = -0.02; outcome = inactive
LCE3E → TNF reporter robust z-score = -1.24; outcome = inactive
LCE3E → TNF reporter robust z-score = -0.64; outcome = inactive
LCE3E → TNF reporter robust z-score = -0.91; outcome = inactive
LCE3E → TNF reporter robust z-score = 0.04; outcome = inactive
NEGR1 → TNF reporter robust z-score = 0.17; outcome = inactive
NEGR1 → TNF reporter robust z-score = -0.41; outcome = inactive
NEGR1 → TNF reporter robust z-score = -1; outcome = inactive
NEGR1 → TNF reporter robust z-score = 0.02; outcome = inactive
FBXL2 → TNF reporter robust z-score = -0.5; outcome = inactive
FBXL2 → TNF reporter robust z-score = 2.68; outcome = inactive
FBXL2 → TNF reporter robust z-score = 2.15; outcome = inactive
FBXL2 → TNF reporter robust z-score = 1.69; outcome = inactive
DIO3 → TNF reporter robust z-score = 3.46; outcome = active
DIO3 → TNF reporter robust z-score = 2.55; outcome = inactive
DIO3 → TNF reporter robust z-score = 1.77; outcome = inactive
DIO3 → TNF reporter robust z-score = 4.25; outcome = active
CALD1 → TNF reporter robust z-score = 1.04; outcome = inactive
CALD1 → TNF reporter robust z-score = -0.37; outcome = inactive
CALD1 → TNF reporter robust z-score = -0.78; outcome = inactive
CALD1 → TNF reporter robust z-score = 0.35; outcome = inactive
ECE2 → TNF reporter robust z-score = -0.04; outcome = inactive
ECE2 → TNF reporter robust z-score = 0.77; outcome = inactive
ECE2 → TNF reporter robust z-score = -0.23; outcome = inactive
ECE2 → TNF reporter robust z-score = 0.5; outcome = inactive
ECE2 → TNF reporter robust z-score = 0.64; outcome = inactive
ECE2 → TNF reporter robust z-score = 0.79; outcome = inactive
ECE2 → TNF reporter robust z-score = 0.2; outcome = inactive
ECE2 → TNF reporter robust z-score = -0.45; outcome = inactive

7 of these entries in another layout:
{"gene": "CALD1", "TNF reporter robust z-score": -0.78, "outcome": "inactive"}
{"gene": "CALD1", "TNF reporter robust z-score": 0.35, "outcome": "inactive"}
{"gene": "ECE2", "TNF reporter robust z-score": -0.04, "outcome": "inactive"}
{"gene": "ECE2", "TNF reporter robust z-score": 0.77, "outcome": "inactive"}
{"gene": "ECE2", "TNF reporter robust z-score": -0.23, "outcome": "inactive"}
{"gene": "ECE2", "TNF reporter robust z-score": 0.5, "outcome": "inactive"}
{"gene": "ECE2", "TNF reporter robust z-score": 0.64, "outcome": "inactive"}
